Measurements: paper PMC4144769
These are yes or no findings as the source states them, for the method shown. Binding seen in cells or lysates may run through a third protein.

Target: T1, mitogen-activated protein kinase 3 (MPK3) (Arabidopsis (endogenous in WT leaves)) (UniProt Q39023)
T1 sequence: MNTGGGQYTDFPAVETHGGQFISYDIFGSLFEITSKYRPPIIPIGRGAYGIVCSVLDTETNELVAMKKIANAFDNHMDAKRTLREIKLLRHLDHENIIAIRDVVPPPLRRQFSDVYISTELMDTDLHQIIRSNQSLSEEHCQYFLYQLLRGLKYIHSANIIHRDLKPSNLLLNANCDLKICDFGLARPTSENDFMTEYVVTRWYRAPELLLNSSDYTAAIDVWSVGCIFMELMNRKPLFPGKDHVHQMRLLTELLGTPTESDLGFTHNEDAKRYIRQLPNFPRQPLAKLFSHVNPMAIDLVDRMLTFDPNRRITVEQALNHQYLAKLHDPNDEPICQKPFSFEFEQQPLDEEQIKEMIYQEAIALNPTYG
Assay: co-IP; total protein extracts of WT Arabidopsis leaves, RL-pre-treated, at the indicated times after inoculation with Pst-DC3000; immunoprecipitation with anti-ERK antibody (4h) and protein A beads, overnight at 4 °C, washed four times with PBS pH 7.4; LOX detected with rabbit polyclonal anti-LOX antibody

With “lipoxygenase (LOX) (Arabidopsis (endogenous in WT leaves))” as the substance, how does the binding read?
Its binding is “no binding”.
